{"source": "the supplement of paper PMC6411743", "test_in_all_cases": "NP40-soluble protein abundance relative to vehicle (solubility fold change) (ratio); higher = more soluble protein in presence of AMP-PNP", "key": {"PREB": {"molecular_target": "T1, PREB (UniProt Q9HCU5)", "T1 sequence (whole entry)": "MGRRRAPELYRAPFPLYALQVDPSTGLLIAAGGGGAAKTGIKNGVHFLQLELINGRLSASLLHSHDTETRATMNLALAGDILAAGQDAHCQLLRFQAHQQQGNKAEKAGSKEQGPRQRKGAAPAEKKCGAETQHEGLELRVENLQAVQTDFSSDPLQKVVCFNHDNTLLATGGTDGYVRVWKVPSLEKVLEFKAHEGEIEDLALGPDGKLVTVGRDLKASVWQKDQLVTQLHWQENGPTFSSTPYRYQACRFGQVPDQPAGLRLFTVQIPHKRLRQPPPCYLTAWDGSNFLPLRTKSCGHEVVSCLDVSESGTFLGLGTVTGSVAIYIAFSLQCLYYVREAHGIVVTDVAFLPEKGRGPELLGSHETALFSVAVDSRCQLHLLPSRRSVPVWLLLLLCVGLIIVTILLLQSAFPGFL", "summary_of_the_method": "(§1)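 Each value is a fold change relative to the detergent-processed vehicle, calculated per replicate from vsn-normalised intensities. Jurkat crude lysate received eight concentrations (0.1 to 10 mM) for 10 min at room temperature and 3 min at 37 °C, then was solubilised in 0.8% NP40 with benzonase (60 min, 4 °C). The ultracentrifuged supernatant was TMT-labelled and run by LC-MS/MS in three independent experiments.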"}, "PRKRIP1": {"molecular_target": "T2, PRKRIP1 (UniProt Q9H875)", "T2 sequence (whole entry)": "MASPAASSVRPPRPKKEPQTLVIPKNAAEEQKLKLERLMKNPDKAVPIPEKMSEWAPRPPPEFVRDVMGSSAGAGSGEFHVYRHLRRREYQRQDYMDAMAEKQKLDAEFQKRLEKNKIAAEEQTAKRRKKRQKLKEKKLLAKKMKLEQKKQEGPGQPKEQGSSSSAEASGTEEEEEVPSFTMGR", "summary_of_the_method": "as §1"}, "RAB3GAP2": {"molecular_target": "T3, RAB3GAP2 (UniProt Q9H2M9)", "T3 sequence (whole entry)": "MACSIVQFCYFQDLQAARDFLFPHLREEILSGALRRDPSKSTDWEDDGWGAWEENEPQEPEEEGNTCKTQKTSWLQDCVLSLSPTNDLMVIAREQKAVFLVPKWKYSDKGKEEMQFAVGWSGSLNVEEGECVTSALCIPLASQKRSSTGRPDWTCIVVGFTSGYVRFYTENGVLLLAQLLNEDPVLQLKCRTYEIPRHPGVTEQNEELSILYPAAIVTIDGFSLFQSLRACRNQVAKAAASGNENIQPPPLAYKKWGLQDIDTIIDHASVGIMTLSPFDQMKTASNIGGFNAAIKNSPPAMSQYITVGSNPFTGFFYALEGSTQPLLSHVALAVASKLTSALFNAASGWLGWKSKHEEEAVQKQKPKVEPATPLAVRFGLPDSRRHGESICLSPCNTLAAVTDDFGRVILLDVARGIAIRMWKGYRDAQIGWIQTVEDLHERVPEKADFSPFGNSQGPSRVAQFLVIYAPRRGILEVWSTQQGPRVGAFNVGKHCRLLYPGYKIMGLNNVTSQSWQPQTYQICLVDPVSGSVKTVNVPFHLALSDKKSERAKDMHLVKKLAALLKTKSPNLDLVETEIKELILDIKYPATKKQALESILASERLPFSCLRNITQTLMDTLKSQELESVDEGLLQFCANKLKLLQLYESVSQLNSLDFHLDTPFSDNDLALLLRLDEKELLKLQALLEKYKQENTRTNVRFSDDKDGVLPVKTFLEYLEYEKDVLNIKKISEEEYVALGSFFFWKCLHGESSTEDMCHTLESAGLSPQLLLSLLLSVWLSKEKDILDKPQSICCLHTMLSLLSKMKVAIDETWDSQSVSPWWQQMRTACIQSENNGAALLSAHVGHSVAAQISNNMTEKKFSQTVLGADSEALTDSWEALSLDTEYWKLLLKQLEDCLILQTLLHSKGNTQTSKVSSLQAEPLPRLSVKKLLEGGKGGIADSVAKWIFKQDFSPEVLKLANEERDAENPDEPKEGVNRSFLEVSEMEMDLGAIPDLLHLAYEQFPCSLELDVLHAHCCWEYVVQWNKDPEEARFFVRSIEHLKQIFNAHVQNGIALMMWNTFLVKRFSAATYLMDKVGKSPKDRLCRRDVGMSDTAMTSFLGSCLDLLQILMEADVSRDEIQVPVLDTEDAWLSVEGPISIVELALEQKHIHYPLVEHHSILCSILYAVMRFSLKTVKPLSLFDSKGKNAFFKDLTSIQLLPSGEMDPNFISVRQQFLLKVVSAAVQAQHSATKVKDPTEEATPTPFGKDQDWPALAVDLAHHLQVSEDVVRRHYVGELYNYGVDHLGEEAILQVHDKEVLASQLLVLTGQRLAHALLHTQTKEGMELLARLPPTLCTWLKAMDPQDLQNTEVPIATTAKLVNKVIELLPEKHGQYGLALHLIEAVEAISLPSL", "summary_of_the_method": "as §1"}, "SMYD3": {"molecular_target": "T4, SMYD3 (UniProt Q9H7B4)", "T4 sequence (whole entry)": "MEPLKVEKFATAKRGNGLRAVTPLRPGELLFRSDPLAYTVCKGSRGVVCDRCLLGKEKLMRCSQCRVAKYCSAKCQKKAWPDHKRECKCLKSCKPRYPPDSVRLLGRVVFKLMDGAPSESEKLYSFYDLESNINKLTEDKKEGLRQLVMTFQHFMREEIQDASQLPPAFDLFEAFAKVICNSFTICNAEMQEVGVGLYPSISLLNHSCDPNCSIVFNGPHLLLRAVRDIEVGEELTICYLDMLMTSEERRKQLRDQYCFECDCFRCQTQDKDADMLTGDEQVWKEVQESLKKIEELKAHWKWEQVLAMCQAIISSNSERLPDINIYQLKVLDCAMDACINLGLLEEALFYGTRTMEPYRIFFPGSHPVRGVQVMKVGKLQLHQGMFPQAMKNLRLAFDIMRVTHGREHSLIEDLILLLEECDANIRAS", "summary_of_the_method": "as §1"}, "UniProt Q9H078-2": {"molecular_target": "T5, UniProt Q9H078-2", "T5 sequence (whole entry)": "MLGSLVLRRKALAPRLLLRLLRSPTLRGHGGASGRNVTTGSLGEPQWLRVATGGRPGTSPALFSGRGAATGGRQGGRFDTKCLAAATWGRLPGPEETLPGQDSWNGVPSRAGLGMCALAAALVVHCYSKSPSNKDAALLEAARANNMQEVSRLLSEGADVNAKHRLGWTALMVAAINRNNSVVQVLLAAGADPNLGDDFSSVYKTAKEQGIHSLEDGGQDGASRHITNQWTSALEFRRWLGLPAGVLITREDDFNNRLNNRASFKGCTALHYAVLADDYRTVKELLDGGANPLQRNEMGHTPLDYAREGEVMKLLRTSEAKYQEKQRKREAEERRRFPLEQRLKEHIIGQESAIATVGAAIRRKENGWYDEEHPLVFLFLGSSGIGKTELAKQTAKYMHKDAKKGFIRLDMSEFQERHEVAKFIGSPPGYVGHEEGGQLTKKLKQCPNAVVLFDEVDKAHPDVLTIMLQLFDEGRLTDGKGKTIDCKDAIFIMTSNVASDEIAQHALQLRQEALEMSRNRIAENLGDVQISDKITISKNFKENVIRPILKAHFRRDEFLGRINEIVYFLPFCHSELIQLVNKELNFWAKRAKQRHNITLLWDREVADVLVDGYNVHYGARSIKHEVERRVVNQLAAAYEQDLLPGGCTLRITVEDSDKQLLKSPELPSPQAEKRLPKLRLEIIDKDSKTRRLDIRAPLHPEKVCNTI", "summary_of_the_method": "as §1"}}, "note": "± gives the standard deviation of the averaged measurements. The entries are a selection whose mix differs from that of the whole data set.", "data": [{"smiles": "Nc1ncnc2c1ncn2[C@@H]1O[C@H](COP(=O)(O)OP(=O)(O)NP(=O)(O)O)[C@@H](O)[C@H]1O", "note": "[adenylyl imidodiphosphate]", "values": [{"measurement": "NP40-soluble protein abundance", "setting": "PREB; concentration: 1mM", "value": "1.03 ± 0.028"}, {"measurement": "NP40-soluble protein abundance", "setting": "PREB; concentration: 2mM", "value": "1.18 ± 0.23"}, {"measurement": "NP40-soluble protein abundance", "setting": "PREB; concentration: 4mM", "value": "1.04 ± 0.073"}, {"measurement": "NP40-soluble protein abundance", "setting": "PREB; concentration: 6mM", "value": "1 ± 0.066"}, {"measurement": "NP40-soluble protein abundance", "setting": "PREB; concentration: 8mM", "value": "1.01 ± 0.065"}, {"measurement": "NP40-soluble protein abundance", "setting": "PREB; concentration: 10mM", "value": "1.02 ± 0.098"}, {"measurement": "NP40-soluble protein abundance", "setting": "PRKRIP1; concentration: 1mM", "value": "1.03 ± 0.053"}, {"measurement": "NP40-soluble protein abundance", "setting": "PRKRIP1; concentration: 2mM", "value": "1.14 ± 0.12"}, {"measurement": "NP40-soluble protein abundance", "setting": "PRKRIP1; concentration: 4mM", "value": "1.1 ± 0.11"}, {"measurement": "NP40-soluble protein abundance", "setting": "PRKRIP1; concentration: 6mM", "value": "1.14 ± 0.073"}, {"measurement": "NP40-soluble protein abundance", "setting": "PRKRIP1; concentration: 8mM", "value": "1.16 ± 0.1"}, {"measurement": "NP40-soluble protein abundance", "setting": "PRKRIP1; concentration: 10mM", "value": "1.15 ± 0.15"}, {"measurement": "NP40-soluble protein abundance", "setting": "RAB3GAP2; concentration: 1mM", "value": "0.992 ± 0.021"}, {"measurement": "NP40-soluble protein abundance", "setting": "RAB3GAP2; concentration: 2mM", "value": "0.928 ± 0.073"}, {"measurement": "NP40-soluble protein abundance", "setting": "RAB3GAP2; concentration: 4mM", "value": "0.97 ± 0.012"}, {"measurement": "NP40-soluble protein abundance", "setting": "RAB3GAP2; concentration: 6mM", "value": "0.933 ± 0.018"}, {"measurement": "NP40-soluble protein abundance", "setting": "RAB3GAP2; concentration: 8mM", "value": "0.9368 ± 0.0065"}, {"measurement": "NP40-soluble protein abundance", "setting": "RAB3GAP2; concentration: 10mM", "value": "0.9065 ± 0.0063"}, {"measurement": "NP40-soluble protein abundance", "setting": "SMYD3; concentration: 1mM", "value": "0.97 ± 0.051"}, {"measurement": "NP40-soluble protein abundance", "setting": "SMYD3; concentration: 2mM", "value": "0.923 ± 0.03"}, {"measurement": "NP40-soluble protein abundance", "setting": "SMYD3; concentration: 4mM", "value": "0.935 ± 0.045"}, {"measurement": "NP40-soluble protein abundance", "setting": "SMYD3; concentration: 6mM", "value": "0.872 ± 0.021"}, {"measurement": "NP40-soluble protein abundance", "setting": "SMYD3; concentration: 8mM", "value": "0.8724 ± 0.0033"}, {"measurement": "NP40-soluble protein abundance", "setting": "SMYD3; concentration: 10mM", "value": "0.829 ± 0.02"}, {"measurement": "NP40-soluble protein abundance", "setting": "UniProt Q9H078-2; concentration: 1mM", "value": "0.999 ± 0.04"}, {"measurement": "NP40-soluble protein abundance", "setting": "UniProt Q9H078-2; concentration: 2mM", "value": "0.962 ± 0.056"}, {"measurement": "NP40-soluble protein abundance", "setting": "UniProt Q9H078-2; concentration: 4mM", "value": "1.01 ± 0.061"}, {"measurement": "NP40-soluble protein abundance", "setting": "UniProt Q9H078-2; concentration: 6mM", "value": "1 ± 0.058"}, {"measurement": "NP40-soluble protein abundance", "setting": "UniProt Q9H078-2; concentration: 8mM", "value": "0.992 ± 0.036"}, {"measurement": "NP40-soluble protein abundance", "setting": "UniProt Q9H078-2; concentration: 10mM", "value": "0.997 ± 0.063"}]}]}
